Results are given in words; binding and its absence hold for the method and conditions named. Binding seen in cells or lysates may run through a third protein. Some binding calls cover weakened binding; strength is not graded here.
Tests used:
JAG1 = JAG1 (UniProt P78504); test: co-IP; cells in 10-cm dishes transfected with 10 μg corresponding plasmids, harvested in PBS containing 1% NP40; Western blot; which partner was precipitated is not stated
Notch1 = Notch1 (UniProt P46531); test: as above

The chains behind the UniProt entries cited, without tags or fusion partners. Residues count along the entry.
UniProt P78504, residues 34-1218: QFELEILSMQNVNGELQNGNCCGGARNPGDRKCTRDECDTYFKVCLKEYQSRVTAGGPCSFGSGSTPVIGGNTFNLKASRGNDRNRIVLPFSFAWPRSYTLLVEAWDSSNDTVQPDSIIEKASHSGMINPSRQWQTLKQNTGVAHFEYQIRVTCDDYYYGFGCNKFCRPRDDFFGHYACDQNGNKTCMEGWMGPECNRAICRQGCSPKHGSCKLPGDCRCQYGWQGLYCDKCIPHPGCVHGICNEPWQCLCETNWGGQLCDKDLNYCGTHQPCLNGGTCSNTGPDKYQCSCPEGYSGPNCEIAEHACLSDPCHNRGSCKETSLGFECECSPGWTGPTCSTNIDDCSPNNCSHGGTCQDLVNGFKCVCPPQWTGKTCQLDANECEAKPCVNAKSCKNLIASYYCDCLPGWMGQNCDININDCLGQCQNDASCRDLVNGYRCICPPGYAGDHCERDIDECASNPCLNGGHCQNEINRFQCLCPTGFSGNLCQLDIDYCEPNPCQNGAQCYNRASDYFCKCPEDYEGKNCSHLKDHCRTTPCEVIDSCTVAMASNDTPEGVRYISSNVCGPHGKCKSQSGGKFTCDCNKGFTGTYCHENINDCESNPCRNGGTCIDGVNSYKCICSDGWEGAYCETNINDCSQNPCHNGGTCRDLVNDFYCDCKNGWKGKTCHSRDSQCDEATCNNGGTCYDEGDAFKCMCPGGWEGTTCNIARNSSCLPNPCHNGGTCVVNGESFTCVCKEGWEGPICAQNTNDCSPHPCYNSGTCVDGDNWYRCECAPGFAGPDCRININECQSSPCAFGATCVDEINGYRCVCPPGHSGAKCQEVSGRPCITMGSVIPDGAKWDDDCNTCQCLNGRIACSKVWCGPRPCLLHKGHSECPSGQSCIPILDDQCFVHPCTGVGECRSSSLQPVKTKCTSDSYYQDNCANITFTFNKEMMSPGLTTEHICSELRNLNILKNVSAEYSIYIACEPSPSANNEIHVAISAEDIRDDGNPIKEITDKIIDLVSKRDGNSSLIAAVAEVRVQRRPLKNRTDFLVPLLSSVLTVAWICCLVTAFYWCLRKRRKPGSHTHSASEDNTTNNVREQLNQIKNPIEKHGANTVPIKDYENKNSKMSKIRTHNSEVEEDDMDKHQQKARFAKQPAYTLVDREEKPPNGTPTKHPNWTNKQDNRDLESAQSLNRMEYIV
UniProt P46531, residues 19-2555: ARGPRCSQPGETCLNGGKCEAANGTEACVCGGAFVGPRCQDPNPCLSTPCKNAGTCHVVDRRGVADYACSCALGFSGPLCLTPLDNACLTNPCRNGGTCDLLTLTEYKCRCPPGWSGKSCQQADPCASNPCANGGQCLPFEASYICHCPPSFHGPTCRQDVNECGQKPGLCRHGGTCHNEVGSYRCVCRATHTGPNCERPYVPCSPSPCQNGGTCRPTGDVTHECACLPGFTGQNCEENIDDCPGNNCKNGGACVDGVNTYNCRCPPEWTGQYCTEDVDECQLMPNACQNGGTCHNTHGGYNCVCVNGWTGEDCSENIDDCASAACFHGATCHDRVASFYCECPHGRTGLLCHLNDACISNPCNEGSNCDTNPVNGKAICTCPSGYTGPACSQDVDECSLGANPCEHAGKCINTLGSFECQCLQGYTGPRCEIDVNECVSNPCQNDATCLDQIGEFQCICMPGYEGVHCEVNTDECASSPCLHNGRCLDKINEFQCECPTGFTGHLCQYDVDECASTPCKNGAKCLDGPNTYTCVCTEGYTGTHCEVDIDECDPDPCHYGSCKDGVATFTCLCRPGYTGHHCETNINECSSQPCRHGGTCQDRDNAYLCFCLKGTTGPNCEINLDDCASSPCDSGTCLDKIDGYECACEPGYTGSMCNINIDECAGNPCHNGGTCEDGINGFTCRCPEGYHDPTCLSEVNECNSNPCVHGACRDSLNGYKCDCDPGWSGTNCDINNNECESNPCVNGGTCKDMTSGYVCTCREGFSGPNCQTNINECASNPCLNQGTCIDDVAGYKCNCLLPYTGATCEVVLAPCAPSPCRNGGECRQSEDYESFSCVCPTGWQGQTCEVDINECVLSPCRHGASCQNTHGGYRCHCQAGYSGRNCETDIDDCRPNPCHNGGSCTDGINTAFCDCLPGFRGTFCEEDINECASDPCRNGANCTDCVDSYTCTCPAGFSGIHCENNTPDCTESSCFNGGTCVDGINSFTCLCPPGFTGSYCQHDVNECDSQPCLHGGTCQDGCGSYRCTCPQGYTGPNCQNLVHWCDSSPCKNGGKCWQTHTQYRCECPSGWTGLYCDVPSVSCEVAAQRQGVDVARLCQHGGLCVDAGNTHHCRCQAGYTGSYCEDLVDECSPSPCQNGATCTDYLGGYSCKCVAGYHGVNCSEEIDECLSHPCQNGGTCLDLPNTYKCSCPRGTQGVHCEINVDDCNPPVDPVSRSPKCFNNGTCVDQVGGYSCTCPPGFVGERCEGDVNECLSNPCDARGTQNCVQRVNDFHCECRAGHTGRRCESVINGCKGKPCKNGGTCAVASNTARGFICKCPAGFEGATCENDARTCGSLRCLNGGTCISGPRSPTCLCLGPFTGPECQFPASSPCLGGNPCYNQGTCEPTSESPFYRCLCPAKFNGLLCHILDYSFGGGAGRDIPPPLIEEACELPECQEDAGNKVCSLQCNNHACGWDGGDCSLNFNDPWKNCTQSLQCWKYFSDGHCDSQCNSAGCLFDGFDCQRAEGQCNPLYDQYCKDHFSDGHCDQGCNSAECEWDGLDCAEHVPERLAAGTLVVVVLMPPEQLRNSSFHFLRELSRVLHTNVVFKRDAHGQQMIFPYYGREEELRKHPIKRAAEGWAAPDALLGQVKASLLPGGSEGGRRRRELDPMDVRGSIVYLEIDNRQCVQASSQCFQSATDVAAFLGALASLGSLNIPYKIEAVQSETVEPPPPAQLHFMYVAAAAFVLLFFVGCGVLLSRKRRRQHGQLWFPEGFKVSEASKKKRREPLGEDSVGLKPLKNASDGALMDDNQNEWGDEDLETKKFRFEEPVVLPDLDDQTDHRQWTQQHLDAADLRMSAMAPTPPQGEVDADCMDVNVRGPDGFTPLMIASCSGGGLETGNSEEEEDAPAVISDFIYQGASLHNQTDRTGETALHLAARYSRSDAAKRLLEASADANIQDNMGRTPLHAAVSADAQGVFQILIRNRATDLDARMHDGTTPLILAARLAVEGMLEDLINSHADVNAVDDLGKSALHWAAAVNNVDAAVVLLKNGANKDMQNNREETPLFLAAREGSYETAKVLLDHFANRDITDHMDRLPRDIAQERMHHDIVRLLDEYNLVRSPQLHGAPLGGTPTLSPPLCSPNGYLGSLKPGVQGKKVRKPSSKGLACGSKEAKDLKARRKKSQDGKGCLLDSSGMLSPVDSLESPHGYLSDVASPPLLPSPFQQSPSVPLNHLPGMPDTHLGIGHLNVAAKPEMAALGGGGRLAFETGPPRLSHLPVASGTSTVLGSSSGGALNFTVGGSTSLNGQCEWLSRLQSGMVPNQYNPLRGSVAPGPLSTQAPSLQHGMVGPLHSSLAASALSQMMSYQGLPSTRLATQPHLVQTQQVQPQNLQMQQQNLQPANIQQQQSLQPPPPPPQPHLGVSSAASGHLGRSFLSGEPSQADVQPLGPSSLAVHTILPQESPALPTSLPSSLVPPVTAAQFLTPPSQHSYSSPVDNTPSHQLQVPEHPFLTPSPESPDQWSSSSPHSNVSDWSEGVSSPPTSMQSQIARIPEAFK

B1: Aspartate β-hydroxylase (ASPH) (enzyme, UniProt Q12797 1-758)
chain: MAQRKNAKSSGNSSSSGSGSGSTSAGSSSPGARRETKHGGHKNGRKGGLSGTSFFTWFMVIALLGVWTSVAVVWFDLVDYEEVLGKLGIYDADGDGDFDVDDAKVLLGLKERSTSEPAVPPEEAEPHTEPEEQVPVEAEPQNIEDEAKEQIQSLLHEMVHAEHVEGEDLQQEDGPTGEPQQEDDEFLMATDVDDRFETLEPEVSHEETEHSYHVEETVSQDCNQDMEEMMSEQENPDSSEPVVEDERLHHDTDDVTYQVYEEQAVYEPLENEGIEITEVTAPPEDNPVEDSQVIVEEVSIFPVEEQQEVPPETNRKTDDPEQKAKVKKKKPKLLNKFDKTIKAELDAAEKLRKRGKIEEAVNAFKELVRKYPQSPRARYGKAQCEDDLAEKRRSNEVLRGAIETYQEVASLPDVPADLLKLSLKRRSDRQQFLGHMRGSLLTLQRLVQLFPNDTSLKNDLGVGYLLIGDNDNAKKVYEEVLSVTPNDGFAKVHYGFILKAQNKIAESIPYLKEGIESGDPGTDDGRFYFHLGDAMQRVGNKEAYKWYELGHKRGHFASVWQRSLYNVNGLKAQPWWTPKETGYTELVKSLERNWKLIRDEGLAVMDKAKGLFLPEDENLREKGDWSQFTLWQQGRRNENACKGAPKTCTLLEKFPETTGCRRGQIKYSIMHPGTHVWPHTGPTNCRLRMHLGLVIPKEGCKIRCANETKTWEEGKVLIFDDSFEHEVWQDASSFRLIFIVDVWHPELTPQQRRSLPAI
With B1 the binding (JAG1) was “binds” and the binding (Notch1) was “binds”.
